Publication PMC11773481

Molecular target: FLAG-tagged isolated KEAP1 KELCH domain
Assay: co-IP; proteins transiently expressed in DPP8/9−/− HEK 293T cells; clarified lysates on anti-FLAG M2 agarose 1 h at 4 °C, PBS washes, 3X-FLAG peptide elution, immunoblot; VbP (10 μΜ) on cells or DTT (10 mM) on beads had no effect

B1: DPP8 V869C (enzyme, UniProt Q6V1X1 1-898)
chain: MWKRSEQMKIKSGKCNMAAAMETEQLGVEIFETADCEENIESQDRPKLEPFYVERYSWSQLKKLLADTRKYHGYMMAKAPHDFMFVKRNDPDGPHSDRIYYLAMSGENRENTLFYSEIPKTINRAAVLMLSWKPLLDLFQATLDYGMYSREEELLRERKRIGTVGIASYDYHQGSGTFLFQAGSGIYHVKDGGPQGFTQQPLRPNLVETSCPNIRMDPKLCPADPDWIAFIHSNDIWISNIVTREERRLTYVHNELANMEEDARSAGVATFVLQEEFDRYSGYWWCPKAETTPSGGKILRILYEENDESEVEIIHVTSPMLETRRADSFRYPKTGTANPKVTFKMSEIMIDAEGRIIDVIDKELIQPFEILFEGVEYIARAGWTPEGKYAWSILLDRSQTRLQIVLISPELFIPVEDDVMERQRLIESVPDSVTPLIIYEETTDIWINIHDIFHVFPQSHEEEIEFIFASECKTGFRHLYKITSILKESKYKRSSGGLPAPSDFKCPIKEEIAITSGEWEVLGRHGSNIQVDEVRRLVYFEGTKDSPLEHHLYVVSYVNPGEVTRLTDRGYSHSCCISQHCDFFISKYSNQKNPHCVSLYKLSSPEDDPTCKTKEFWATILDSAGPLPDYTPPEIFSFESTTGFTLYGMLYKPHDLQPGKKYPTVLFIYGGPQVQLVNNRFKGVKYFRLNTLASLGYVVVVIDNRGSCHRGLKFEGAFKYKMGQIEIDDQVEGLQYLASRYDFIDLDRVGIHGWSYGGYLSLMALMQRSDIFRVAIAGAPVTLWIFYDTGYTERYMGHPDQNEQGYYLGSVAMQAEKFPSEPNRLLLLHGFLDENVHFAHTSILLSFLVRAGKPYDLQIYPQERHSIRCPESGEHYELHLLHYLQENLGSRIAALKVI
binding: binds

These are yes or no findings as the source states them, for the method shown. Binding seen in cells or lysates may run through a third protein. A result given as binding can be weak or reduced; the word gives no strength.
